Assay results reported in paper PMC7819943, “Rice protein-binding microarrays: a tool to detect cis-acting elements near promoter regions in rice”.
The other results are listed elsewhere or left out.

These sequences were tested against T1, OsSMF1 (Oryza sativa, UniProt Q6ZLB0 1-436) (assay: protein-binding microarray (RPBM); PBS, 2% BSA, 51.3 ng/ul salmon testes DNA, 50 uM zinc acetate, 200 nM TF, 25 C, 1 h; high values mean tight binding). Details: protein: recombinant; tags: N-terminal polyhistidine and DsRed monomer fusion (pET32a); chain copies: 2; label: CyDye5-dUTP incorporated in the synthesized complementary strand; 3' TTTTT single-stranded linker to array surface; dsDNA, one strand shown.
T1 sequence: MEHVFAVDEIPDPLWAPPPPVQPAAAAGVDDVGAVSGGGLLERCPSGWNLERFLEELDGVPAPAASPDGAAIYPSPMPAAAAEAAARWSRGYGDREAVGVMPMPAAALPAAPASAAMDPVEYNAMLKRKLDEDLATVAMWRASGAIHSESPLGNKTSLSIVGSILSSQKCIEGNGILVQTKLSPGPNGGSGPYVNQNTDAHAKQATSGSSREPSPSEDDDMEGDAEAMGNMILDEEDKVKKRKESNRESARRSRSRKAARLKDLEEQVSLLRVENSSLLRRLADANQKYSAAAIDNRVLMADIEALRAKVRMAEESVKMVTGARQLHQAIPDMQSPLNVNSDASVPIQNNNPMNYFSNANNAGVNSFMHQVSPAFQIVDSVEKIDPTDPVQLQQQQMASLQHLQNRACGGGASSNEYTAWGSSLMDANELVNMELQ
Outline: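 Ni–NTA purification followed expression in E. coli BL21-CodonPlus of transcription factors fused N-terminally to a polyhistidine tag and DsRed. At 200 nM in PBS with 2% BSA, salmon testes DNA and 50 µM zinc acetate, the protein was incubated for 1 h at 25 °C with a custom Agilent array that had been primer-extended with Cy5-dUTP and blocked with 2% BSA. After washing, the array was read on an Axon 4000B scanner. The binding signal is per-feature fluorescence intensity in arbitrary units.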
“GCGTACCCATCTTAGTGAGTAGGACGGAGCCATGGAGGGTCGGAGTCACCTAGTGCAG” was tested, and the binding signal was 3860 fluorescence intensity (a.u.).
For “CCGCCGGCGAGCCCTCGCCTTCCTCCACGCGGCCAGCGCCCGGAGTCACCTAGTGCAG”, the binding signal was 3300 fluorescence intensity (a.u.).
In the case of “GCGCCGTCGTCGTCGCTGCCGTGGCGCCGCCGCGGCCACCCGGAGTCACCTAGTGCAG”, the binding signal is reported as 6800 fluorescence intensity (a.u.).
“CCAAGATTTCACAGCTGAGGATTCCACGCGCGAAGACATCCGGAGTCACCTAGTGCAG” was tested, and the binding signal was 3180 fluorescence intensity (a.u.).
In the case of “GGTGCTTATACTGGTAGGATACGTGTGTATAGGTGAGCGTCGGAGTCACCTAGTGCAG”, the binding signal is reported as 3430 fluorescence intensity (a.u.).
With “TTTGGGAGAATGGTCAGTCAGCTTACGTGGAGAGCCCAGTCGGAGTCACCTAGTGCAG” the binding signal was 14200 fluorescence intensity (a.u.).
“GCGGGTCGCTCCTGCCTGTGTCAGCCCCAACAGCTACTGCCGGAGTCACCTAGTGCAG” was tested, and the binding signal was 4070 fluorescence intensity (a.u.).
With “CCTGCCTACCTCCGCGACATGCCGACGAGGCAGGTGGTGGCGGAGTCACCTAGTGCAG” the binding signal was 3710 fluorescence intensity (a.u.).
In the case of “CAGTAGACCAGCCTTTGTCCCCTAGTCAGCCAACTGTTCCCGGAGTCACCTAGTGCAG”, the binding signal is reported as 3440 fluorescence intensity (a.u.).
“CATCTCAATCCTACAGCGCAGTAGATACCCCGGGCAAGGTCGGAGTCACCTAGTGCAG” was tested, and the binding signal was 3300 fluorescence intensity (a.u.).
With “TTGACATGTGGGTCTCAAATGTTATTTTAATTTATTTTCCCGGAGTCACCTAGTGCAG” the binding signal was 4020 fluorescence intensity (a.u.).
In the case of “ATACGGACGCACATTTGAAGTATTAAACGTAGAGTAATAACGGAGTCACCTAGTGCAG”, the binding signal is reported as 19700 fluorescence intensity (a.u.).
With “TCTCCTCCTCGGTTGCAAGCTGCTTCTGCCTTCTGCTGGGCGGAGTCACCTAGTGCAG” the binding signal was 3370 fluorescence intensity (a.u.).
“GAGGTGGAGAGTTATTGAAAGTAAAGAACATATAGCTCCACGGAGTCACCTAGTGCAG” was tested, and the binding signal was 3260 fluorescence intensity (a.u.).
For “AGAGGCAGCACCGCCGCCGGGGCAATCGAGCAGGCGGAGGCGGAGTCACCTAGTGCAG”, the binding signal was 3460 fluorescence intensity (a.u.).
In the case of “CATCATGTCCTATCTGAACTGTTACAACCACGACGTAGTACGGAGTCACCTAGTGCAG”, the binding signal is reported as 3320 fluorescence intensity (a.u.).
With “AGATTAGGTTGCTGTAGCCATGACTGTGAGTTGTGACTAGCGGAGTCACCTAGTGCAG” the binding signal was 4030 fluorescence intensity (a.u.).
“GCTCGTGATATCCGAGGCCACTCACTTCACTTCCTACACACGGAGTCACCTAGTGCAG” was tested, and the binding signal was 29500 fluorescence intensity (a.u.).
In the case of “AAGTGGGCCATTAATAAATACATCATCTCTCTTTTATACCCGGAGTCACCTAGTGCAG”, the binding signal is reported as 3350 fluorescence intensity (a.u.).
In the case of “CCGAATCCGGCCACCCCGCCGCCTCCACGCGCATCACCGCCGGAGTCACCTAGTGCAG”, the binding signal is reported as 3220 fluorescence intensity (a.u.).
For “ACCTCCGGCCCACGGACGCGACGCGCTTACACACATGGCCCGGAGTCACCTAGTGCAG”, the binding signal was 3580 fluorescence intensity (a.u.).
With “AGAAAAGGAGGAAAAGAATTTCCCTGGGATTTAAAATATTCGGAGTCACCTAGTGCAG” the binding signal was 26300 fluorescence intensity (a.u.).
For “TCACTCCAGTCCAATGCACTCATCGCAGCCATGATGAATGCGGAGTCACCTAGTGCAG”, the binding signal was 3980 fluorescence intensity (a.u.).
